Source: patent publication US20260132464A1, “CIRCULAR RNAS FOR THE DIAGNOSIS AND TREATMENT OF BRAIN DISORDERS” (UNM Rainforest Innovations, priority 2018, published 2026)
At least one compound was matched to its structure with a doubt left.

Tested on: circHomer1a
Experiment: circHomer1a expression (circRNA qRT-PCR) after 2 day drug treatment of stem cell-derived mixed neuronal and astrocyte cultures
Assay type: cell-based
Conditions: 2 days treatment, human 6-9 month differentiated stem cell-derived mixed neuronal and astrocyte cultures
Text: FIG. 6A is a representative bright-field image from 6-9 month differentiated human embryonic stem cell (hESC)-derived mature mixed neuronal and glial cultures.
FIG. 6B is an immunofluorescence image showing the presence of neurons (MAP2, red) and astrocytes (GFAP, green). Scale bar=100 μm.
05, two-tailed one sample t-test. The number of replicates is also shown within the graph.

Cc1cc2c(s1)Nc1ccccc1N=C2N1CCN(C)CC1 [Olanzapine, olanzapine]
circHomer1a expression relative to Vehicle: lack of effect
